Assay results: US7884189B2, “Carboxyltransferase domain of acetyl-CoA carboxylase” (The Trustees of Columbia University in the City of new York, priority 2003, dated 2011)
Some results were stated once for a whole list of compounds, not compound by compound.

B1: L1705I (protein)
chain: GSMHLRPIATPYPVKEWLQPKRYKAHLMGTTYVYDFPELFRQASSSQWKNFSADVKLTDDFFISNELIEDENGELTEVEREPGANAIGMVAFKITVKTPEYPRGRQFVVVANDITFKIGSFGPQEDEFFNKVTEYARKRGIPRIYLAANSGARIGMAEEIVPLFQVAWNDAANPDKGFQYLYLTSEGMETLKKFDKENSVLTERTVINGEERFVIKTIIGSEDGLGVECIRGSGLIAGATSRAYHDIFTITLVTCRSVGIGAYLVRLGQRAIQVEGQPIILTGAPAINKMLGREVYTSNLQLGGTQIMYNNGVSHLTAVDDLAGVEKIVEWMSYVPAKRNMPVPILETKDTWDRPVDFTPTNDETYDVRWMIEGRETESGFEYGLFDKGSFFETLSGWAKGVVVGRARLGGIPLGVIGVETRTVENLIPADPANPNSAETLIQEPGQVWHPNSAFKTAQAINDFNNGEQLPMMILANWRGFSGGQRDMFNEVLKYGSFIVDALVDYKQPIIIYIPPTGELRGGSWVVVDPTINADQMEMYADVNARAGVLEPQGMVGIKFRREKLLDTMNRLDDKYRELRSQLSNKSLAPEVHQQISKQLADRERELLPIYGQISLQFADLHDRSSRMVAKGVISKELEWTEARRFFFWRLRRRLNEEYLIKRLSHQVGEASRLEKIARIRSWYPASVDHEDDRQVATWIEENYKTLDDKLKGLKLESFAQDLAKKIRSDHDNAIDGLSEVIKMLSTDDKEKLLKTLK
modifications: left off: small tags and cut ends
B2: V1967I (protein)
chain: GSMHLRPIATPYPVKEWLQPKRYKAHLMGTTYVYDFPELFRQASSSQWKNFSADVKLTDDFFISNELIEDENGELTEVEREPGANAIGMVAFKITVKTPEYPRGRQFVVVANDITFKIGSFGPQEDEFFNKVTEYARKRGIPRIYLAANSGARIGMAEEIVPLFQVAWNDAANPDKGFQYLYLTSEGMETLKKFDKENSVLTERTVINGEERFVIKTIIGSEDGLGVECLRGSGLIAGATSRAYHDIFTITLVTCRSVGIGAYLVRLGQRAIQVEGQPIILTGAPAINKMLGREVYTSNLQLGGTQIMYNNGVSHLTAVDDLAGVEKIVEWMSYVPAKRNMPVPILETKDTWDRPVDFTPTNDETYDVRWMIEGRETESGFEYGLFDKGSFFETLSGWAKGVVVGRARLGGIPLGVIGVETRTVENLIPADPANPNSAETLIQEPGQVWHPNSAFKTAQAINDFNNGEQLPMMILANWRGFSGGQRDMFNEILKYGSFIVDALVDYKQPIIIYIPPTGELRGGSWVVVDPTINADQMEMYADVNARAGVLEPQGMVGIKFRREKLLDTMNRLDDKYRELRSQLSNKSLAPEVHQQISKQLADRERELLPIYGQISLQFADLHDRSSRMVAKGVISKELEWTEARRFFFWRLRRRLNEEYLIKRLSHQVGEASRLEKIARIRSWYPASVDHEDDRQVATWIEENYKTLDDKLKGLKLESFAQDLAKKIRSDHDNAIDGLSEVIKMLSTDDKEKLLKTLK
modifications: left off: small tags and cut ends

Test: Kinetic parameters of wild-type and mutant yeast CT (reverse reaction, malonyl-CoA to biotin methyl ester)
Assay type: biochemical, S. cerevisiae
Description: Enzyme kinetic assays. The CT domain can catalyze the decarboxylation of malonyl-CoA to produce acetyl-CoA in the presence of biotin methyl ester. The kinetic assays monitored the production of acetyl-CoA by coupling it to citrate synthase and malate dehydronase, which ultimately lead to the reduction of NAD^+ (Guchhait et al., 1974, J. Biol. Chem. […]). Mutations in the active site were designed based on the structural information. The mutants were made with the QuikChange kit (Stratagene) and sequenced for confirmation. They were purified and assayed kinetically under the same condition as the wild-type protein. The kinetic parameters for each enzyme were obtained by non-linear least-squares fitting to the initial velocity data.
To characterize the functional roles of the conserved residues in the active site, many of them were mutated and the kinetic parameters of the mutants for the reverse reaction, which transfers the carboxyl group of malonyl-CoA to biotin (Table D) were determined. […] Based on the structures of the invention, it is likely that this residue is important for recognizing the carboxyl group of malonyl-CoA, and this is also consistent with the hypothesis that the biotin substrate may be mostly associated with the C domain. […]

| Molecule | reduction in catalytic activity as compared to the wild-type CT domain [fold] |
| --- | --- |
| B1 | ≥ 50 |
| B2 | ≥ 50 |
